Experimental data published in patent US20110245145A1.
Results are given in words; binding and its absence hold for the method and conditions named. For some assays here: Binding seen in cells or lysates may run through a third protein. Some entries that bind do so weakly or less than the wild type.

By UniProt entry, the sequences of proteins in these tests, tags left out. Residues count along the entry.
UniProt P06213, residues 28-1382: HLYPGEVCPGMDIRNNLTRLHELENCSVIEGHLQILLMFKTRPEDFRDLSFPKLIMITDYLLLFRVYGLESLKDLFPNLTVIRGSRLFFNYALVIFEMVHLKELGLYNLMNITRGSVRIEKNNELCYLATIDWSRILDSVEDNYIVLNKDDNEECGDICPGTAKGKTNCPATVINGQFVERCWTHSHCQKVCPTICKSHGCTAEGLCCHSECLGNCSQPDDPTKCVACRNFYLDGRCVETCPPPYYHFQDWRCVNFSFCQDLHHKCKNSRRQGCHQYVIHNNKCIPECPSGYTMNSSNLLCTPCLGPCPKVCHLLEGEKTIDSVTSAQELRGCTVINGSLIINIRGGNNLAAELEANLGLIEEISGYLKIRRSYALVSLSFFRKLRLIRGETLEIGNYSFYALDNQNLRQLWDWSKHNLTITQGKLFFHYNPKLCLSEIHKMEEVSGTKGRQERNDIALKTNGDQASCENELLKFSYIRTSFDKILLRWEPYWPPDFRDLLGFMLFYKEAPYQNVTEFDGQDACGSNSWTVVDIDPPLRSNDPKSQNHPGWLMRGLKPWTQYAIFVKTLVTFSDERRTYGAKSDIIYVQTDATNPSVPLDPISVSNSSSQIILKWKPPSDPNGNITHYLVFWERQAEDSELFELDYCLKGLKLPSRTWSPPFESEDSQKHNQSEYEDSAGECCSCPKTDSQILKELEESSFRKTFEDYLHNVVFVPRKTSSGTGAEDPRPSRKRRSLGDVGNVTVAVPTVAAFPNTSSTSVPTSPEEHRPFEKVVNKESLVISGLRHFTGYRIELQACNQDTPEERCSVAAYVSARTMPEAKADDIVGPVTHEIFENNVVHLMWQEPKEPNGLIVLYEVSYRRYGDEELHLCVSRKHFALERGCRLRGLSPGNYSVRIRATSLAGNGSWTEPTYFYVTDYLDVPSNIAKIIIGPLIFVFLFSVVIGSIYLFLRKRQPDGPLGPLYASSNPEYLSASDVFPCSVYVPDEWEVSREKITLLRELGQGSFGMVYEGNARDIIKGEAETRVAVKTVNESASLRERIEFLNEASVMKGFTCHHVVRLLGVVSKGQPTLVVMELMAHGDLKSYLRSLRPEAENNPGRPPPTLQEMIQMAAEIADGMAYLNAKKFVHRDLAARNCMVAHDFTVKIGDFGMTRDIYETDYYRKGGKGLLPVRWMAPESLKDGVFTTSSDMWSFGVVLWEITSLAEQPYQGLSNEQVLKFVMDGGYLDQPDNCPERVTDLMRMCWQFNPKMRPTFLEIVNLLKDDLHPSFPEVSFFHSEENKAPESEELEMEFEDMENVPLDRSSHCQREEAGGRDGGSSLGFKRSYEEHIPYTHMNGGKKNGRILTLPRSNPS
UniProt P15208, residues 28-1372: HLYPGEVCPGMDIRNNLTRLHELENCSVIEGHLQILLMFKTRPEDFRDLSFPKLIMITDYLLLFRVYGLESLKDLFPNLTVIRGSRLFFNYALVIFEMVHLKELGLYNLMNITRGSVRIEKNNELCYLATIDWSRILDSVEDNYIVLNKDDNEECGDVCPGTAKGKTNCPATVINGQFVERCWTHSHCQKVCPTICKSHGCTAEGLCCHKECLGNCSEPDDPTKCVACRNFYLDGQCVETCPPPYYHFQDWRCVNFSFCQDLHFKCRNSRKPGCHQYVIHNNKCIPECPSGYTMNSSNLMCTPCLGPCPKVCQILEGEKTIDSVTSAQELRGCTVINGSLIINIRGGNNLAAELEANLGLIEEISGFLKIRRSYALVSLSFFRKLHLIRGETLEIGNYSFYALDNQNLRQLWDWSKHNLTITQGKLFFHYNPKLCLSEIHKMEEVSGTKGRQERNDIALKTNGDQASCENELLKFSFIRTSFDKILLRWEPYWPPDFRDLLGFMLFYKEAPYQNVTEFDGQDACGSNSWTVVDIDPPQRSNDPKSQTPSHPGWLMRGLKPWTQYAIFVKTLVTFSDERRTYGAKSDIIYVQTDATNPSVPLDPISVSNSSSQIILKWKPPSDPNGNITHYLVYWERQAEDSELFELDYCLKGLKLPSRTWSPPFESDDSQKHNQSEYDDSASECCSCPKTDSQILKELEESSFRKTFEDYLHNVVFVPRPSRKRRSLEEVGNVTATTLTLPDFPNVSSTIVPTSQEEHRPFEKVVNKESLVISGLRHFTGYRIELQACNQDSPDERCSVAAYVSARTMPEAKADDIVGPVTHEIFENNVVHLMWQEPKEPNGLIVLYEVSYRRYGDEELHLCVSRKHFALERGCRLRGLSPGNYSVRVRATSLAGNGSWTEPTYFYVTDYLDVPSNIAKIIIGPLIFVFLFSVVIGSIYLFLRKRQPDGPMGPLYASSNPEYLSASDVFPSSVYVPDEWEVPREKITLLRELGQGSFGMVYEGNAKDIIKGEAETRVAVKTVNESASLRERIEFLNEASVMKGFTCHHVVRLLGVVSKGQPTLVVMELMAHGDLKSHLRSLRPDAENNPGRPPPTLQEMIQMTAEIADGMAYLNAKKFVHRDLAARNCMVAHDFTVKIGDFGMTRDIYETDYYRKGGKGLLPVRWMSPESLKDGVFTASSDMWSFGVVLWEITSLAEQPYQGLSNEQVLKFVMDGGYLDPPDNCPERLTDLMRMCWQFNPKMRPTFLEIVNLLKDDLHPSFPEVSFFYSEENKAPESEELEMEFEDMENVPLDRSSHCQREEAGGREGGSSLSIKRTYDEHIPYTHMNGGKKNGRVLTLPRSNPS
UniProt P31750: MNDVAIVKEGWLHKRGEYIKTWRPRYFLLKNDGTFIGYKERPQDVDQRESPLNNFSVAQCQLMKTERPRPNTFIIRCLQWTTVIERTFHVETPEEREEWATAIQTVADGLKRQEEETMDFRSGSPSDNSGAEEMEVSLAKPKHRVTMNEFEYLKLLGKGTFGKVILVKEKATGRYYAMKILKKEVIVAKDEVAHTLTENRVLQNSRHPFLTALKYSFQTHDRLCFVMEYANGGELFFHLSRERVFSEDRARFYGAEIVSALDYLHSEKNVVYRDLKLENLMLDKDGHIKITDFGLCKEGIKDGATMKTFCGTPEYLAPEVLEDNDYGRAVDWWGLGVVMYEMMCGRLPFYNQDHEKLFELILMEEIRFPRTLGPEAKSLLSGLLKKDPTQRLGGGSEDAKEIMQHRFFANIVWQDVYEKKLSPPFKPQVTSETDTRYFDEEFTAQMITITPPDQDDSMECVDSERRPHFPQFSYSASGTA
UniProt P32121: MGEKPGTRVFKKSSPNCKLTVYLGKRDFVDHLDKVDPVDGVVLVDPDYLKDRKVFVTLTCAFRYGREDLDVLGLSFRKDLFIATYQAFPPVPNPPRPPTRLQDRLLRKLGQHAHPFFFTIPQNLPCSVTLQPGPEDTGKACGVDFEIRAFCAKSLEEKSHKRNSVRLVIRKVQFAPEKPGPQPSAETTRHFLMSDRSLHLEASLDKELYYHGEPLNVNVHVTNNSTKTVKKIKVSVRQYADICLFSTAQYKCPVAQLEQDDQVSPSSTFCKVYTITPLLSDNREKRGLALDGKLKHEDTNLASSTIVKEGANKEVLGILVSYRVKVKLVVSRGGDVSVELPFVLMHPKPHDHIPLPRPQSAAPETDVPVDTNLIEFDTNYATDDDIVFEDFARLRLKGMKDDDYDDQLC
UniProt Q91YI4: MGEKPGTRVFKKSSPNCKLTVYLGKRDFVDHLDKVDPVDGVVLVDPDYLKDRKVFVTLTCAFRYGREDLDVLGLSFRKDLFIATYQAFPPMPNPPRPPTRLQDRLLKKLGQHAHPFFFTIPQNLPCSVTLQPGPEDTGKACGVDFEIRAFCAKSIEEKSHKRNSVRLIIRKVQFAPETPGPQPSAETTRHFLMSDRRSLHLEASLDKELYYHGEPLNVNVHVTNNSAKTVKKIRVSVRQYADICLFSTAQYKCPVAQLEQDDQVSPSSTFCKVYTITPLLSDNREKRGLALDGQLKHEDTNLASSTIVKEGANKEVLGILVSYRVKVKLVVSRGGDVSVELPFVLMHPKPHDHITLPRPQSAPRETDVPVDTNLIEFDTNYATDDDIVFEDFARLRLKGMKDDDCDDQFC

Tests used:
[1] = target: insulin receptor of Hep3B hepatocytes (human) (UniProt P06213); assay: immunoprecipitation with anti-IR, Hep3B with or without 100 nM Wortmannin, then 100 nM insulin
[2] = target: insulin receptor (mouse liver, immunoprecipitated for IRβ) (mouse) (UniProt P15208); assay: immunoprecipitation for IRβ, liver of insulin-injected mice (FIG. 6B)
[3] = target: insulin receptor (mouse liver, immunoprecipitated for IRβ) (mouse) (UniProt P15208); assay: immunoprecipitation for IRβ, liver of insulin-injected mice
[4] = target: endogenous Akt (mouse liver) (mouse) (UniProt P31750); assay: co-immunoprecipitation, C57BL/6 mouse liver lysate
[5] = target: endogenous Akt (mouse liver) (mouse) (UniProt P31750); assay: co-immunoprecipitation, C57BL/6 mouse liver lysate (FIG. 5A)

binding [1] | binding [2] | binding [3] | binding [4] | binding [5] | Substance
binds | – | – | – | – | endogenous βarrestin2 of Hep3B hepatocytes (from UniProt P32121 1-409)
– | binds | binds | binds | binds | endogenous βarrestin2 (mouse liver) (from UniProt Q91YI4 1-410)
